In US20210070876A1:
These are yes or no findings as the source states them, for the method shown. Some results given as binding are weak or reduced against the parent protein; the word gives no strength. For some of these results: Tags and fused reporters may be left off the sequences shown.

How the values were obtained:
[1] = biological target: T1, His-tagged human CD73 ECD (human) (UniProt P21589); assay: SEC-MALS, antibody mixed with CD73-His
T1 sequence: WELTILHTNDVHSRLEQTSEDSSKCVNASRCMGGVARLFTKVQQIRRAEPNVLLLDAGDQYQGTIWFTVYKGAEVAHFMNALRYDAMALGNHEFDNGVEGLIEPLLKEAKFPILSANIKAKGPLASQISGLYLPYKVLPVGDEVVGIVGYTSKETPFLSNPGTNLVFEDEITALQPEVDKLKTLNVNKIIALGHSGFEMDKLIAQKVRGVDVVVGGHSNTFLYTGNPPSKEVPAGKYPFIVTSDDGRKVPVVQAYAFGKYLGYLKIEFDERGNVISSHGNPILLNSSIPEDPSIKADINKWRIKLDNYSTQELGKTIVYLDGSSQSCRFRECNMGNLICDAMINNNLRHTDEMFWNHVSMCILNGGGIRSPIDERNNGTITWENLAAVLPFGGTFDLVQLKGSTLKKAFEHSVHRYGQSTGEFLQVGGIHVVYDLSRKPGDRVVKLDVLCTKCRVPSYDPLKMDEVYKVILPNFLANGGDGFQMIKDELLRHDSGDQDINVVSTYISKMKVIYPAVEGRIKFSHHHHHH

[2] = biological target: T1, His-tagged human CD73 ECD (human); assay: SPR, mAb captured, His-tagged CD73 ECD injected
[3] = biological target: cynomolgus CD73 expressed on cells (cynomolgus monkey (Macaca fascicularis)); assay: flow cytometry, CHO-S cells transiently expressing cynomolgus CD73
[4] = biological target: T1, His-tagged human CD73 ECD (human); assay: SEC-MALS (refractive index trace) of antibody mixed with His-tagged CD73 ECD at the ratios shown
[5] = biological target: cynomolgus CD73 expressed on cells (cynomolgus monkey (Macaca fascicularis)); assay: flow cytometry on CHO-S cells transiently expressing cynomolgus CD73, AF647 anti-human IgG (H+L) secondary, GeoMean

Measured: binding

B1: antibody 21046 (antibody, human IgG1, kappa, L234A L235A, V domains shown)
VH: EVQLVESGGGLVQPGRSLRLSCVASGFTFDDYAMHWVRQAPGKGLEWVSGISWNSGSIGYADSVKGRFTISRDNAKNSLYLQMNSLRAEDTAFYYCAQGGYAILTALEYWGQGTLVTVSS
VL: DIQMTQSPSSLSASVGDRVTITCRASQGISNYLAWFQQKPGKAPKSLIYAASSLQSGVPSKFSGSGSGTDFTLTISSLQPEDFATYYCQQYNSYPLTFGGGTKVEIKR
binds: [1] | [2] | [3] | [4] | [5]

B2: antibody 21163 (antibody, human IgG1, kappa, L234A L235A, V domains shown)
VH: EVQLVESGGGLVQPGGSLRLSCAASGFSFSTYWMNWVRQAPGKGLEWVANIKQDGSEKYYVDSVKGRFTISRDNAKNSLYLQMNSLRAEDTAVYYCARDISSSWFYYYGMDVWGQGTTVTVSS
VL: DIQLTQSPSFLSASVGDRVTITCRASQGISSYLAWYQQKPGKAPKLLIYAASTLQSGVPSRFSGSGSGTEFTLTISSLQPEDFATYYCQQLNSYPPTFGGGTKVEIKR
binds: [1] | [2] | [3] | [4] | [5]
